From patent US20170303574A1, “COMPOUNDS, COMPOSITIONS, AND METHODS FOR MODULATING SWEET TASTE” (Chromocell Corporation, priority 2014, published 2017)

System: perception of sweet taste, in an aqueous solution
Test: Inherent sweetness assessment using 2AFC method
Type: in vivo, humans
Settings: compound in aqueous solution without sweetener vs 1.5% SE HFCS control; 18-21 panelists
Description: The aqueous sweetener solutions were prepared by adding sucrose equivalent quantities of HFCS (by weight), to water to achieve the desired concentration. The aqueous solutions ranged in pH from 2.5-pH 7. Compounds were first prepared as a 500-fold concentrated stock solution in 100% ethanol. These concentrated stocks were then added to the aqueous sweetener solutions to result in a final ethanol concentration of 0.2%. The control (positive and negative) samples were also normalized to 0.2% ethanol. This level of ethanol was not seen to contribute any perceived sweetness The intrinsic effect of test compounds on the perception of sweet taste, in an aqueous solution, in humans was evaluated using 2AFC methodology. This test was a double-blinded, randomized study where taste panelists (n≧20) evaluate a pair of sweetener solutions at a time—one sample contains aqueous solutions, without sweetener, plus compound (i.e. test) while the other contains aqueous solution containing 1.5% sucrose equivalent (SE), HFCS (i.e. control). […] Panelists were instructed not to eat or drink (except water) for at least 1 hour before the test. During the test, panelists were instructed to sip each sample, swirl it around their mouth and then expectorate. After tasting each sample in the pair, panelists were instructed to record the sample that is “sweeter” in taste. Panelists cleansed their palates by rinsing with water, eating a cracker and waiting for an interval of about 5 minutes. Each pair was tasted twice. All samples were tasted at ambient temperatures. Data were analyzed using binomial probabilities

First: COc1ccc(C2CCc3ccc(O)c(C)c3O2)cc1O (racemic) [Compound 1, 2-(3-hydroxy-4-methoxyphenyl)-8-methylchroman-7-ol]
Second: COc1ccc([C@@H]2CCc3ccc(O)c(C)c3O2)cc1O [Compound 2, (S)-2-(3-hydroxy-4-methoxyphenyl)-8-methylchroman-7-ol]
The Number picking control of the first is lower: 15 for the first, 16 for the second.

For COc1ccc(C2CCc3cc(C)c(O)cc3O2)cc1O (racemic) [Compound 4, 2-(3-hydroxy-4-methoxyphenyl)-6-methylchroman-7-ol], the Number picking control was 16.
With COc1ccc(C2CCc3cc(C)c(O)cc3O2)cc1O (single isomer, unassigned; (-)) [Compound 5, (−)-2-(3-hydroxy-4-methoxyphenyl)-6-methylchroman-7-ol] the Number picking control was 13.
